The list shows a part of the results, in another mix than the full data. At the low end of the ranking the order means little.
Biological target: T1, EHF (UniProt Q9NZC4)
T1 sequence: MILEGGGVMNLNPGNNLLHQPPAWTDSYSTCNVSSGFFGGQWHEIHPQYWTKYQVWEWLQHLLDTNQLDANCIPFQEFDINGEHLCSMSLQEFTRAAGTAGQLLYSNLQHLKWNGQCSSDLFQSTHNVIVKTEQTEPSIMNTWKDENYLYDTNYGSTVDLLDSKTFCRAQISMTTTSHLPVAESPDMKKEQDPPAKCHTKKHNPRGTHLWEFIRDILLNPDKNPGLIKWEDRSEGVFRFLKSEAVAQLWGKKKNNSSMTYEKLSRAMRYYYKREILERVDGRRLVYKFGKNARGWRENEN
Assay: DAPPL (digital affinity profiling via proximity ligation, sequencing)
Conditions: 10 mM Tris-HCl pH 7.5, 50 mM NaCl, 1 mM DTT, 4% glycerol, room temperature, 30 min; GST-TFs on glutathione beads, 16-mer random dsDNA library, 0.1% …; high values mean tight binding; double strand, one strand shown; scale: fold enrichment (6-mer frequency, TF over GST control)

Chains of the proteins cited; added tags and fusions are not shown. Lines headed by an entry give the natural chain unless they say otherwise; changes in a name come on top.
UniProt P41161: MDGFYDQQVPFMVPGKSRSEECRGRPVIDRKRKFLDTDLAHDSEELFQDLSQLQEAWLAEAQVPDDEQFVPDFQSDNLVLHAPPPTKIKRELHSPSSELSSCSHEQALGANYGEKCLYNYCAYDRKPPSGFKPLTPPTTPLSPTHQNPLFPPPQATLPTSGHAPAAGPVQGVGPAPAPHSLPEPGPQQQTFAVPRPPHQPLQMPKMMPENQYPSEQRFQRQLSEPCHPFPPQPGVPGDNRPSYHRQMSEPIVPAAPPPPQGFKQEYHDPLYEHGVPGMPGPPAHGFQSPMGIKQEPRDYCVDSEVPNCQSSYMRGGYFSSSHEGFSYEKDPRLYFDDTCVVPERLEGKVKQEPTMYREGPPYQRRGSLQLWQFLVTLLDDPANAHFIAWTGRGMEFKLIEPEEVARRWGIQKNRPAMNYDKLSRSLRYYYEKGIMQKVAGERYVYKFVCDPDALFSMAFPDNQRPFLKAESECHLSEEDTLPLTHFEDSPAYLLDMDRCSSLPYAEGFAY
UniProt Q99607: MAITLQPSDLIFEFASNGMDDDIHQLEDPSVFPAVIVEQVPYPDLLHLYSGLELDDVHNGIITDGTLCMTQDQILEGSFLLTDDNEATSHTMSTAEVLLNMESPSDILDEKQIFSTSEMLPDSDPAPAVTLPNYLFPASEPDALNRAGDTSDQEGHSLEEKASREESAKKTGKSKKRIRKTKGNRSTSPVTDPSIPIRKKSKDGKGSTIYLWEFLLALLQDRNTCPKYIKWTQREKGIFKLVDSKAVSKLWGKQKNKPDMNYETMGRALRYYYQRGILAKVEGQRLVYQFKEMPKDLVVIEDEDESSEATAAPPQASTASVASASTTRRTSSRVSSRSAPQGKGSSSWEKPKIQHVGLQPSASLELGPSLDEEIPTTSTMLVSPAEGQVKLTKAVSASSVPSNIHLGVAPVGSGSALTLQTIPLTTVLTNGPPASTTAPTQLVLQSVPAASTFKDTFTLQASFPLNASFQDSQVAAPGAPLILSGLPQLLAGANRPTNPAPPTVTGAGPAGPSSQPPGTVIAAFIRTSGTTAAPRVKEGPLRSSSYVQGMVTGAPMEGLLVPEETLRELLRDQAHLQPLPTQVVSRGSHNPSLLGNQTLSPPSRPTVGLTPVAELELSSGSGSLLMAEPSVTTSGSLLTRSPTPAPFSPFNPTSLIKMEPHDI

Sequence | binding signal
CTCGGG | 0.986
CAAAGT | 0.886
TGCGCA | 1.16
CCAAGT | 0.847
CCCGCG | 0.897
TTGGAT | 0.934

Biological target: ETV5 (UniProt P41161)
Assay: as above
Conditions: 10 mM Tris-HCl pH 7.5, 50 mM NaCl, 1 mM DTT, 4% glycerol, room temperature, 30 min; GST-TFs on glutathione beads, 16-mer random dsDNA library, 0.1% …; high values mean tight binding; double strand, one strand shown; scale: fold enrichment (6-mer frequency, TF over GST control)

Sequence | binding signal
CTCGGG | 0.967
CCCCCT | 1.29
TACGCA | 1.21
ACGTCA | 0.948
TTTAAG | 1.34
TCTGAC | 1.15
CCCGGT | 1.09
TCGATG | 1.11
AGTGGT | 1.14
CCATCA | 1.23
TGATAG | 0.992
TGTGAT | 0.938
CTGCGC | 1.34
AATCTT | 1.35
ACTCAA | 1.16
CACGAC | 1.28
CAAAGT | 0.968
CAGCGC | 0.997
ATCAAC | 1.04
CTAGGC | 1.06

Sequence | binding signal
TCTGTG | 1.08
TGCGCA | 1.12
TGAATC | 0.998
TTCTAG | 1.11
TGGTAA | 1.23
GATTAA | 0.993
GATCCA | 0.992
AATTTT | 1.29
AAGATT | 1.25
TCCCGA | 1.37
ACGGCA | 1.13
GCATCT | 0.964
TAATCC | 1.3
CCAAGT | 0.963
ACAACT | 1.32
CCCGCG | 0.937
GCAGCC | 0.941
ATGTAG | 1.08
TTGGAT | 0.955

Biological target: ELF4 (UniProt Q99607)
Assay: as above
Conditions: 10 mM Tris-HCl pH 7.5, 50 mM NaCl, 1 mM DTT, 4% glycerol, room temperature, 30 min; GST-TFs on glutathione beads, 16-mer random dsDNA library, 0.1% …; high values mean tight binding; double strand, one strand shown; scale: fold enrichment (6-mer frequency, TF over GST control)

Sequence | binding signal
CTCGGG | 0.995
CCCCCT | 1.35
TACGCA | 1.23
ACGTCA | 0.947
TTTAAG | 1.29
TCTGAC | 1.35
CCCGGT | 0.963
TCGATG | 1.2
AGTGGT | 0.993
CCATCA | 1.2
TGATAG | 1.03
TGTGAT | 1.05
CTGCGC | 1.32
AATCTT | 1.31
ACTCAA | 1.16
CACGAC | 1.35
CAAAGT | 1.03
CAGCGC | 0.942
ATCAAC | 1.09
CTAGGC | 1.16

Sequence | binding signal
TCTGTG | 1.2
TGCGCA | 1.09
TGAATC | 0.965
TTCTAG | 1.22
TGGTAA | 1.23
GATTAA | 0.984
GATCCA | 1.05
AATTTT | 1.32
AAGATT | 1.22
TCCCGA | 1.25
ACGGCA | 1.06
GCATCT | 0.948
TAATCC | 1.23
CCAAGT | 0.918
ACAACT | 1.36
CCCGCG | 0.964
GCAGCC | 0.929
ATGTAG | 1.1
TTGGAT | 0.995

Biological target: T2, ETV2 (UniProt O00321)
T2 sequence: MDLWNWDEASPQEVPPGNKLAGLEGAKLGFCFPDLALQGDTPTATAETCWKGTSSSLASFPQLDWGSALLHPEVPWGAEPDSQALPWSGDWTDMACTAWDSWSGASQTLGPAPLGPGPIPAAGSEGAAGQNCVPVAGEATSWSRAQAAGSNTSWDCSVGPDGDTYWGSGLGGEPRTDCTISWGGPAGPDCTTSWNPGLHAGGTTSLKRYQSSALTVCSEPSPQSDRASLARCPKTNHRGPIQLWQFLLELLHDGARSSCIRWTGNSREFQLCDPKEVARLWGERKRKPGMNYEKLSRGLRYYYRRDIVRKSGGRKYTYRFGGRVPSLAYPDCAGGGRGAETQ
Assay: as above
Conditions: 10 mM Tris-HCl pH 7.5, 50 mM NaCl, 1 mM DTT, 4% glycerol, room temperature, 30 min; GST-TFs on glutathione beads, 16-mer random dsDNA library, 0.1% …; high values mean tight binding; double strand, one strand shown; scale: fold enrichment (6-mer frequency, TF over GST control)

Sequence | binding signal
CTCGGG | 0.967
CCCCCT | 1.17
TACGCA | 1.15
ACGTCA | 0.897
CCCGGT | 0.989
AGTGGT | 0.848
TGTGAT | 0.953
CTGCGC | 1.46
CAAAGT | 0.997
CAGCGC | 1.07
ATCAAC | 1.18
CTAGGC | 1.21
TGCGCA | 0.988
TGAATC | 0.899
TTCTAG | 1.18
TGGTAA | 1.3
GATTAA | 1.11
GATCCA | 1
AATTTT | 1.46
AAGATT | 1.16
TCCCGA | 0.993
ACGGCA | 0.954
CCAAGT | 0.962
ACAACT | 1.29
CCCGCG | 0.834
GCAGCC | 0.935
ATGTAG | 1.03
TTGGAT | 0.98

Biological target: T3, ETV3L (UniProt Q6ZN32)
T3 sequence: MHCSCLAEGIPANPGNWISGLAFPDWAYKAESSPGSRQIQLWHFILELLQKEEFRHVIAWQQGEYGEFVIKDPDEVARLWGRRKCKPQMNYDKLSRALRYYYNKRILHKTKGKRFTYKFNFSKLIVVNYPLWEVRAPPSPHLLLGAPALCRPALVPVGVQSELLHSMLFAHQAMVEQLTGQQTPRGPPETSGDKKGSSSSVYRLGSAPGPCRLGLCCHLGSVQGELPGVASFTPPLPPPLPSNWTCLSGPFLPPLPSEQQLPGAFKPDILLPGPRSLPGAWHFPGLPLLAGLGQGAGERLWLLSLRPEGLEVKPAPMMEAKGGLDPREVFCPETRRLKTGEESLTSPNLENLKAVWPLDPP
Assay: as above
Conditions: 10 mM Tris-HCl pH 7.5, 50 mM NaCl, 1 mM DTT, 4% glycerol, room temperature, 30 min; GST-TFs on glutathione beads, 16-mer random dsDNA library, 0.1% …; high values mean tight binding; double strand, one strand shown; scale: fold enrichment (6-mer frequency, TF over GST control)

Sequence | binding signal
CTCGGG | 1.09
TACGCA | 1.12
ACGTCA | 0.893
AGTGGT | 1.06
CAAAGT | 0.948
ATCAAC | 1.23
TGCGCA | 1.11
TGAATC | 0.915
TTCTAG | 1.3
GATCCA | 1.06
CCAAGT | 0.937
ACAACT | 1.36
CCCGCG | 0.956
GCAGCC | 0.982
ATGTAG | 0.979
TTGGAT | 0.976

From article PMC7862700
